# Assay results as given in the supplement of paper PMC6411743.
# Sequences of proteins named here, by UniProt entry; tags and fusion partners are left off. A change or cut given only in a name is not applied to a line headed by its entry.
# UniProt Q9Y6W3: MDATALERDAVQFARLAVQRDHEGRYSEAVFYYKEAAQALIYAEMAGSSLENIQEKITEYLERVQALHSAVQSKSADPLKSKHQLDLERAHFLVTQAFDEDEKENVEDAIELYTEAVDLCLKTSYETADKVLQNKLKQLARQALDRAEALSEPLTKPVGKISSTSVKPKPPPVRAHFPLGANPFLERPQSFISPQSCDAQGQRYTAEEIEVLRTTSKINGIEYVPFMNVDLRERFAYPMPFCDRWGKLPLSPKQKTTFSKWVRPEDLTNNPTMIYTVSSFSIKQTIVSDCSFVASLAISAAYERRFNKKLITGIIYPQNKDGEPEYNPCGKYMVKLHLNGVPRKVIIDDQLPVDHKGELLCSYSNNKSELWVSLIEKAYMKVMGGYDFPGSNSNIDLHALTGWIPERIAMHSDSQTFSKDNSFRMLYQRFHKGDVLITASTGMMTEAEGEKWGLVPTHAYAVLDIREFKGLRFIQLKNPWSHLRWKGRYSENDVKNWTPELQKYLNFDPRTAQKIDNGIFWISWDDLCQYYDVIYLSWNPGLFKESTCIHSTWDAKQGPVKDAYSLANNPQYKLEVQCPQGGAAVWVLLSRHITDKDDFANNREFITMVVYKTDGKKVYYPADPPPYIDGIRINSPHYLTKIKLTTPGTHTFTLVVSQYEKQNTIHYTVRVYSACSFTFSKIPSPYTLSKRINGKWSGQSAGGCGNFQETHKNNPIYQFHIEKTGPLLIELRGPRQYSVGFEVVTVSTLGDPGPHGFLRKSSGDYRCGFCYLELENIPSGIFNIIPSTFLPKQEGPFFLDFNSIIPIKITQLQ
# UniProt Q9Y2Z0: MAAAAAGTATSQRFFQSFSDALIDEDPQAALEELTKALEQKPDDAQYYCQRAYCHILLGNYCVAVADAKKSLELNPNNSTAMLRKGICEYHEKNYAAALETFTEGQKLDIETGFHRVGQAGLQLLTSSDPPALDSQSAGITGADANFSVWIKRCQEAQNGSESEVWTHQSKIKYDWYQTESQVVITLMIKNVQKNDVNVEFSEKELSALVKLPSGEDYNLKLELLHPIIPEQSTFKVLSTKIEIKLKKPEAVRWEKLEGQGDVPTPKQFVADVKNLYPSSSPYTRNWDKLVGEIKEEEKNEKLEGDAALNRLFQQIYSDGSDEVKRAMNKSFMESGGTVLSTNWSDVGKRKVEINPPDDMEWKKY
# UniProt Q9UNS1: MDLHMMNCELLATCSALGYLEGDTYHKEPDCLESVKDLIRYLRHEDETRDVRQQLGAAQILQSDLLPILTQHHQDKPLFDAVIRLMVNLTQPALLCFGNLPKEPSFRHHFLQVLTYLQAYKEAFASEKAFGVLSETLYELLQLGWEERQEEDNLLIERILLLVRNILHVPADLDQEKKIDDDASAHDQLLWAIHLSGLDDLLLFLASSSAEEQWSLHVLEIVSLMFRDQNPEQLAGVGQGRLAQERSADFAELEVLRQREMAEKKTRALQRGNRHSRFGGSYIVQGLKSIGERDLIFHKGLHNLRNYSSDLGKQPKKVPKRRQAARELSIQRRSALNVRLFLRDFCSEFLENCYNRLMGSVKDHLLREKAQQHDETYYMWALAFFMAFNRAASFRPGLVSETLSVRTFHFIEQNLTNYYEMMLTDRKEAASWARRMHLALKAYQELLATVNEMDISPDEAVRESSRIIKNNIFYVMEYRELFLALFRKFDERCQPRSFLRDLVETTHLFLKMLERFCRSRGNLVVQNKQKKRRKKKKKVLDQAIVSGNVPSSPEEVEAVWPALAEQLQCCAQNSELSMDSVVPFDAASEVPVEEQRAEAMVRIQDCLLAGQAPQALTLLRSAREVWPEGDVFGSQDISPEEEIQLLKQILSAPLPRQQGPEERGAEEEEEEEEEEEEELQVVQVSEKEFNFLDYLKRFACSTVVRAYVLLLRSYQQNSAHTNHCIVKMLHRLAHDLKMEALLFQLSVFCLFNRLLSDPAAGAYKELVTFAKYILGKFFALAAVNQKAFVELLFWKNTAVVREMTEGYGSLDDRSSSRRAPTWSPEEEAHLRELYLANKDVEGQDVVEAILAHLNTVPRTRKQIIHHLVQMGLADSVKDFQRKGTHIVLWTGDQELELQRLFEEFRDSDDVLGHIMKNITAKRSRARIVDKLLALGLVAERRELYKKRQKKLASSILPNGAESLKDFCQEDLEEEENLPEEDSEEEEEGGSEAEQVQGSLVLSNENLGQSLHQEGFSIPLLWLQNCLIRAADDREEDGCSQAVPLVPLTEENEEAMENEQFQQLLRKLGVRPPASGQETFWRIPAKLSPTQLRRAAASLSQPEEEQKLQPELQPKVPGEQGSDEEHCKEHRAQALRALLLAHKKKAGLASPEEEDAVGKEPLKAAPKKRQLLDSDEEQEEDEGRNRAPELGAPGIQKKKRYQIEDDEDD
# UniProt Q9UPN9: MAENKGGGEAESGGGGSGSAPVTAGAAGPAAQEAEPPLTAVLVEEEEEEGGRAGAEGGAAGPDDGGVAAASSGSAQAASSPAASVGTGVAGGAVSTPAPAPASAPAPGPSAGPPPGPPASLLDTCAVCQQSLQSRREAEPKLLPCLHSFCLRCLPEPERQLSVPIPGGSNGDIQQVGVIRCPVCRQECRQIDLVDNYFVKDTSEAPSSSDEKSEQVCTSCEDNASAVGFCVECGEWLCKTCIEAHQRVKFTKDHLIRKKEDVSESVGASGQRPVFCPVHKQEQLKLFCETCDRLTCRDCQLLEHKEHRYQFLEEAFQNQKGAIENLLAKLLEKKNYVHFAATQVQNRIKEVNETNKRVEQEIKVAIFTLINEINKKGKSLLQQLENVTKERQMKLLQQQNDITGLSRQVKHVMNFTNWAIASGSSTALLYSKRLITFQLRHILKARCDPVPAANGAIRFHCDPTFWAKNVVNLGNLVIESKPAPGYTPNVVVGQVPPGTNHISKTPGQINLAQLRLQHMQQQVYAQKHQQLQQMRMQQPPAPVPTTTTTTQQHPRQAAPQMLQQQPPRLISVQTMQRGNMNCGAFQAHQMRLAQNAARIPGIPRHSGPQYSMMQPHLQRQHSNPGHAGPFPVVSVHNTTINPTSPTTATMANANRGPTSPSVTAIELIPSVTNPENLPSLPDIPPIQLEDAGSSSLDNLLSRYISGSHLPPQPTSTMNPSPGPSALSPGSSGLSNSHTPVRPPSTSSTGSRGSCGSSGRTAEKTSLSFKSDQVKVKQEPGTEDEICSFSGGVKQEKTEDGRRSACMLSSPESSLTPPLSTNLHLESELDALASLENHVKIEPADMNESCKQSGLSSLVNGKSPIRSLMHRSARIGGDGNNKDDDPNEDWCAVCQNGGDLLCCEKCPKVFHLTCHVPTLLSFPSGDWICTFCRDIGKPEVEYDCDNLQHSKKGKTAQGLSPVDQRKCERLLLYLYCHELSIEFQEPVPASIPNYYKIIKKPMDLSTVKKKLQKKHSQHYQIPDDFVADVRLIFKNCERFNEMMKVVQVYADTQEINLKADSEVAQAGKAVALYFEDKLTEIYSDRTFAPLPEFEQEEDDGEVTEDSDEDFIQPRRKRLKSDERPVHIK
# UniProt Q9UPY3: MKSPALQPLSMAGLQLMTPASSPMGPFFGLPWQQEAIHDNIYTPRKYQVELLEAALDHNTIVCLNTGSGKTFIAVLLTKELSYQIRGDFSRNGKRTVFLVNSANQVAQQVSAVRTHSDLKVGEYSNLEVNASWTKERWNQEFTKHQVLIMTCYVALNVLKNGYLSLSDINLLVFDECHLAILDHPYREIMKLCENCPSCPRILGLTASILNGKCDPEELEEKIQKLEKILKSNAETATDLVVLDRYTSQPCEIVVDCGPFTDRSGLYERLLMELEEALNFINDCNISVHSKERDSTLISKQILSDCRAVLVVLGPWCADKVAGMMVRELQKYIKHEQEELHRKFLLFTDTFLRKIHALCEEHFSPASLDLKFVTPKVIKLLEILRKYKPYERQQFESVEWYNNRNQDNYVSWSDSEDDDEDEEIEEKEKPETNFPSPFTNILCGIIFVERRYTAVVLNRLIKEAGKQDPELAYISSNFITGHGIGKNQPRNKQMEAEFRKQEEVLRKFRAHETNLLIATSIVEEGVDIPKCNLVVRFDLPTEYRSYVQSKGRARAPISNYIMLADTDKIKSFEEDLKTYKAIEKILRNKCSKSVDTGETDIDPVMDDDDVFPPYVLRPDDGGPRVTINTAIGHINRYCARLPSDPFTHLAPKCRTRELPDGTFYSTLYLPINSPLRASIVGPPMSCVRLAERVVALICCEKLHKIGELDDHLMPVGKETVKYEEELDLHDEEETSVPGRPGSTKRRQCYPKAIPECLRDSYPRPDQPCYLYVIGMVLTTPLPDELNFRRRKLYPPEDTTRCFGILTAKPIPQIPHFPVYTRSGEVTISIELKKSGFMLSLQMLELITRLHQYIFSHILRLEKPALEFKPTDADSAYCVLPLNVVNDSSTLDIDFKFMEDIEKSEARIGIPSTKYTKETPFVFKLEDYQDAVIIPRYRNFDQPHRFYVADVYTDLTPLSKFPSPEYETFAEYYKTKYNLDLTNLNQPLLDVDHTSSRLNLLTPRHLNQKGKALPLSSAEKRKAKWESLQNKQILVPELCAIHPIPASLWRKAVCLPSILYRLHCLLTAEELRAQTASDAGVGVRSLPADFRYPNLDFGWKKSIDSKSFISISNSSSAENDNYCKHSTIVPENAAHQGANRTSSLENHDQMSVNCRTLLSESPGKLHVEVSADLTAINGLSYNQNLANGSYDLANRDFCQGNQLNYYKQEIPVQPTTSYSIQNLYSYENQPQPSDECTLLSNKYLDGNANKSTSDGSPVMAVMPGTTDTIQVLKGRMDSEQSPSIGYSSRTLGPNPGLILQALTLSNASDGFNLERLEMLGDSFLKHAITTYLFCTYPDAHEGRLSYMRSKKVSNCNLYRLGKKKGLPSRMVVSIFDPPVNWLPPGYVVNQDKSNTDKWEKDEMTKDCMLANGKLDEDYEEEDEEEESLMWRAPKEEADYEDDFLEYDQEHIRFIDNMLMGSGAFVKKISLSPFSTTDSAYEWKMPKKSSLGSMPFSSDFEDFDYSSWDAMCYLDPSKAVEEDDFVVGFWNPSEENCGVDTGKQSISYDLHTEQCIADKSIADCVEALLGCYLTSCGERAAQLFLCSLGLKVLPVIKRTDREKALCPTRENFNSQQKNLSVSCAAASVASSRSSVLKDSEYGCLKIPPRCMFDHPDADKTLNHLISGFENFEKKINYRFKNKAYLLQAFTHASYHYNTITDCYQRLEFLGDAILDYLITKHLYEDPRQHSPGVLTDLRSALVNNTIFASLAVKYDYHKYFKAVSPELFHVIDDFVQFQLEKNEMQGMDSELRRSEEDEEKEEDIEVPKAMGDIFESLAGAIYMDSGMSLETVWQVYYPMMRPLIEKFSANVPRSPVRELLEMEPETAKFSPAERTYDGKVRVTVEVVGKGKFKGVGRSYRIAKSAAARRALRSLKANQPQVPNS
# ± gives the standard deviation of the averaged measurements. Some of the results follow.
# Compound: Nc1nc2c(ncn2[C@@H]2O[C@H](COP(=O)(O)OP(=O)(O)OP(=O)(O)O)[C@@H](O)[C@H]2O)c(=O)[nH]1 [guanosine triphosphate]
# Experiment: NP40-soluble protein abundance relative to vehicle (solubility fold change) (ratio); higher = more soluble protein in presence of GTP
# Procedure: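 Solubility proteome profiling in Jurkat crude lysate. Lysate was treated with Mg-GTP (0.1-10 mM) for 10 min at room temperature and 3 min at 37 °C, then solubilised with 0.8% NP40 and benzonase, followed by ultracentrifugation. Proteins were quantified by TMT10 LC-MS/MS; the value is the NP40-soluble abundance relative to the NP40-processed vehicle, from 3 independent experiments.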
Target,NP40-soluble protein abundance (concentration: 0.1mM),NP40-soluble protein abundance (concentration: 0.5mM),NP40-soluble protein abundance (concentration: 1mM),NP40-soluble protein abundance (concentration: 2mM),NP40-soluble protein abundance (concentration: 4mM),NP40-soluble protein abundance (concentration: 6mM),NP40-soluble protein abundance (concentration: 8mM),NP40-soluble protein abundance (concentration: 10mM)
CAPN7 (UniProt Q9Y6W3),0.939 ± 0.098,0.993 ± 0.043,0.924 ± 0.094,0.912 ± 0.038,0.905 ± 0.014,0.925 ± 0.083,0.883 ± 0.093,0.954 ± 0.053
SUGT1 (UniProt Q9Y2Z0),0.98 ± 0.031,0.958 ± 0.044,0.926 ± 0.03,0.88 ± 0.029,0.87 ± 0.046,0.877 ± 0.046,0.899 ± 0.04,0.829 ± 0.079
UniProt Q9UNS1 and related entries,0.947 ± 0.028,0.965 ± 0.032,0.969 ± 0.037,0.9414 ± 0.0033,0.948 ± 0.0033,0.934 ± 0.02,0.952 ± 0.042,0.961 ± 0.028
UniProt Q9UPN9 and related entries,0.995 ± 0.024,1.02 ± 0.029,1.06 ± 0.022,1.04 ± 0.036,1.06 ± 0.06,1.05 ± 0.044,1.08 ± 0.064,1.06 ± 0.088
UniProt Q9UPY3 and related entries,1.08 ± 0.064,1.04 ± 0.084,1.02 ± 0.037,1.08 ± 0.1,1.07 ± 0.076,1 ± 0.08,1.05 ± 0.055,1.01 ± 0.075
